Experimental data as given in PubChem BioAssay AID2685 (National Center for Advancing Translational Sciences (NCATS), 2010).
The list shows a part of the results. Shown are side measurements of this screen, not its main read-out; they come without a call. Most of these compounds were active or inconclusive in the main read-out, so they are no random draw. Words in brackets tell the shape of the fitted curve; partial curves, single points and poor fits give uncertain potencies.

Assay: qHTS Assay for Lipid Storage Modulators in Drosophila S3 Cells;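 as to cell number change: cells counted by Cell Tracker Red CMTPX staining in the red channel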
Settings: BODIPY lipid droplet fluorescence, 18-24 h; for cell number change: measured here: cell count max response, cells fed with added oleic acid
Outline: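 Drosophila S3 cells loaded with oleic acid (400 uM, as added) and compounds at several concentrations; lipid droplets imaged by 488-nm laser-scanning cytometry, 500–530 nm intensity and object ratio to cell channel. Percent activity normalized to 20 uM Triacsin C.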

[1] = measured here: lipid fluorescence (Fed channel) AC50, cells fed with added oleic acid
[2] = measured here: cell number channel AC50, cells fed with added oleic acid

Cc1ccc(S(=O)(=O)N[C@@H](C)C(=O)N2CCC(C(=O)N[C@@H](Cc3ccccc3)C(=O)O)CC2)cc1
cell number change: -24.2%

Cc1cc(C(=O)CSc2ccc(F)cc2)cc(C)c1O
cell number change: -24%
AC50 [1]: 11.6 µM [falling, partial curve]

OCC[C@@H]1C[C@@H](O)[C@H](O)[C@@]2(CCCc3ccccc3O2)O1
cell number change: 26.3%

O=C(O)C1CCN(S(=O)(=O)c2ccc(N3CCC(O)CC3)c([N+](=O)[O-])c2)CC1
cell number change: -15.1%
AC50 [1]: 29.1 µM [falling, single point]

CC(C)c1ccc(/C=N/NC(=O)CC(=O)NCc2ccccc2)cc1
cell number change: 16.7%

Cc1cc(C)c(S(=O)(=O)Nc2cnc3ccccc3c2)c(C)c1
cell number change: 4.17%

O=C(O)CCSc1nnc(COc2cccc3cccnc23)n1-c1ccccc1
cell number change: -21%

CCC1=C2CC[C@H]3C(=O)N(c4ccccc4)C(=O)[C@H]3[C@H]2[C@@]2(C)C(=NCc3ccccc3)OC(=O)N2C1=O
cell number change: -27.4%
AC50 [1]: 0.82 µM [falling, full curve]

CCc1nnc(NC(=O)CCC(=O)N2CCN(c3cc(C)ccc3C)CC2)s1
cell number change: -22.9%
AC50 [1]: 0.13 µM [falling, full curve, poor fit]

Cc1ccc(S(=O)(=O)NCCc2cc3ccc(C)cc3[nH]c2=O)cc1
cell number change: -9.21%
AC50 [1]: 12.6 µM [falling, single point]

COc1cc(/C=N/NC(=O)COc2ccc(Cl)cc2)ccc1OS(=O)(=O)c1ccc(C)cc1
cell number change: 7.47%
AC50 [1]: 0.92 µM [rising, full curve]

Cc1ccc(S(=O)(=O)Nc2ccc(Cl)cc2)cc1NC(=O)c1cc2c(s1)CCCC2
cell number change: 22%
AC50 [2]: 0.291 µM [rising, single point]
AC50 [1]: 0.411 µM [rising, full curve, poor fit]

CCOc1cc(/C=C2\SC(=S)N(Nc3ccccc3)C2=O)ccc1O
cell number change: -96.1%
AC50 [2]: 29.1 µM [falling, single point]
AC50 [1]: 29.1 µM [falling, single point]

c1ccc(SCc2nc(-c3ccncc3)no2)cc1
cell number change: -24.6%
AC50 [1]: 3.26 µM [rising, partial curve]

Cc1ccc2[nH]c(=O)c(CNS(=O)(=O)c3ccccc3)c(-c3ccccc3)c2c1
cell number change: 6.17%
AC50 [1]: 6.51 µM [rising, single point]

COc1cc(/C=N/O)cc(Br)c1OCc1cccc(Cl)c1
cell number change: -30.3%
AC50 [2]: 1.84 µM [falling, full curve, poor fit]
AC50 [1]: 2.59 µM [falling, partial curve]

O=C(COC(=O)c1cc(=O)[nH]c2ccccc12)NCc1ccc(Cl)cc1
cell number change: -28.6%
AC50 [1]: 0.82 µM [falling, single point]

Cc1ccc(-c2n[nH]c(=O)c3ccccc23)cc1S(=O)(=O)N(C)CCO
cell number change: 25.5%

Cc1ccc(C2=NCCn3c2c2ccc(C(F)(F)F)cc2[n+]3[O-])cc1
cell number change: 13.3%
AC50 [1]: 32.6 µM [rising, single point]

CCn1c(-c2ccc(N)cc2)nc2ccccc21
cell number change: -25.3%
AC50 [1]: 23.1 µM [falling, single point]

COc1cc(C(=O)NCCOc2ccccc2C)cc(OC)c1OC
cell number change: 16.9%

CCOc1ccc(C(=O)NCC(=O)N2CCC(C)CC2)cc1OCC
cell number change: 123%
AC50 [2]: 0.0291 µM [rising, full curve, poor fit]

Cc1ccc(OCC(=O)NCc2ccco2)cc1C
cell number change: -19%

Cc1cc(C(=O)NCCCN2CC(C)CC(C)C2)n(-c2ccccc2)n1 (stereo not drawn)
cell number change: 1.45%

CN(CC(=O)Nc1cccc(F)c1)C(=O)CCSc1ccc(F)cc1
cell number change: 132%
AC50 [2]: 18.4 µM [rising, partial curve]

O=C(Cc1ccccc1)NNc1ccc2ccccc2c1
cell number change: 2.59%

CCCN1CCN(S(=O)(=O)c2cn(C)nc2C)CC1
cell number change: 3.04%
AC50 [1]: 29.1 µM [rising, single point]

CCCCOCCOCCOCCCC
cell number change: -11.4%
AC50 [1]: 3.26 µM [rising, partial curve]

CCC(=O)N/N=C/c1ccc(OS(=O)(=O)c2ccccc2)cc1
cell number change: 10.7%
AC50 [1]: 1.3 µM [rising, partial curve, poor fit]

Cc1cccc(N2CN=C3SCC(=O)N3C2)c1
cell number change: 26.1%
AC50 [1]: 0.13 µM [rising, full curve, poor fit]

COc1ccc(/C=C(\NC(=O)c2ccc(OC)c(OC)c2)C(=O)N2CCN(C)CC2)cc1
cell number change: -10.3%

CCCCNC(=O)C(CC)(ONc1ccccc1C(F)(F)F)c1ccccc1 (stereo not drawn)
cell number change: -84.2%
AC50 [2]: 18.4 µM [falling, partial curve]
AC50 [1]: 16.4 µM [falling, single point]

Nc1nnnn1/N=C/C=C/c1ccccc1
cell number change: -38.8%
AC50 [2]: 14.6 µM [falling, partial curve, poor fit]
AC50 [1]: 29.1 µM [falling, single point]

COC(=O)c1ccc2c(c1)SC1=C(CCCC1=O)N2
AC50 [2]: 6.51 µM [rising, single point]
AC50 [1]: 4.61 µM [rising, single point]

CCOC(=O)NC(Nc1nnc(SCC)s1)(C(F)(F)F)C(F)(F)F
cell number change: -6%
AC50 [1]: 29.1 µM [falling, single point]

CC(=O)c1ccc(-n2c(CCC(=O)O)ccc2-c2ccccc2)cc1
cell number change: 22.8%
AC50 [1]: 0.0731 µM [rising, full curve, poor fit]

O=C(C1CC1)N1N=C(C2CCCCC2)CC1(O)C(F)(F)F (stereo not drawn)
cell number change: -18.8%

Cc1ccc2[nH]c(=O)c(CN3CCCCC3)c(-c3ccccc3)c2c1
cell number change: 5.05%
AC50 [1]: 4.11 µM [falling, single point]

Cc1cc(C(=O)NC2Cc3ccccc3C2)c(C)o1
cell number change: -15.2%

Cc1ccc(CNC(=O)C2CCN(S(=O)(=O)c3cccc4nonc34)CC2)cc1
cell number change: 54.8%
AC50 [2]: 10.3 µM [rising, partial curve]

COc1cc(/C=N/Nc2nncn2/N=C/c2ccc(O)c(OC)c2)ccc1O
cell number change: 11.6%
AC50 [2]: 2.06 µM [rising, single point]

Cc1cc(C)c(NC(=O)C2CC(=O)N(c3ccc4c(c3)OCCO4)C2)c(C)c1 (stereo not drawn)
AC50 [2]: 0.206 µM [rising, partial curve]
AC50 [1]: 0.82 µM [rising, partial curve]

C=C(C)c1cccc(C(C)(C)NC(=O)NC2CCN(Cc3ccccc3)CC2)c1
cell number change: 18.7%
AC50 [1]: 10.3 µM [rising, partial curve, poor fit]

Cc1ccc(S(=O)(=O)N/N=C/c2ccc(OCC(=O)Nc3ccccc3Cl)cc2)cc1
cell number change: -18.1%

Cc1ccc(C(=O)COC(=O)CNC(=O)COc2ccccc2C)cc1C
cell number change: 1.41%
AC50 [2]: 1.3 µM [falling, partial curve]
AC50 [1]: 0.517 µM [falling, single point]

O=C(Nc1ccc(Cl)cc1)c1csc(-c2ccccc2)n1
AC50 [1]: 0.58 µM [falling, single point]

O=C(NNS(=O)(=O)c1ccccc1)c1ccncc1
cell number change: 3.09%

COc1ccc(-c2cc(CCCC(=O)N3CCN(c4ccc(OC)cc4)CC3)no2)cc1
cell number change: 0.991%
AC50 [1]: 0.00461 µM [falling, full curve, poor fit]

CCN(C(=O)CSc1nnc(Cc2cccc3ccccc23)n1N)C1CCS(=O)(=O)C1 (stereo not drawn)
AC50 [1]: 0.92 µM [rising, full curve, poor fit]

Cc1cc(C)n2cc(-c3ccc(Cl)cc3)c(C(=O)O)c2n1
cell number change: -15%
AC50 [2]: 6.51 µM [falling, single point]
AC50 [1]: 6.51 µM [falling, single point]

CN(C)c1cc(N/N=C/c2ccccc2C(F)(F)F)nc(N(C)C)n1
cell number change: 0.549%
AC50 [1]: 29.1 µM [falling, single point]

O=C(Nc1ccccc1)NC1CCN(CCCN2C(=O)c3ccccc3C2=O)CC1
cell number change: 2.33%

Cc1ccc(NC(=O)CC2Oc3ccc(C)cc3NC2=O)cc1 (stereo not drawn)
cell number change: -7%
AC50 [1]: 0.0731 µM [falling, full curve, poor fit]

Cc1ccc2c(c1)nnn2C1CCN(CC(=O)N2CCN(c3ccc(F)cc3)CC2)CC1
AC50 [1]: 6.51 µM [rising, partial curve]

Nn1c(SCC(=O)N2CCc3ccccc3C2)nnc1-c1cccs1
cell number change: 7.9%
AC50 [1]: 4.61 µM [rising, full curve]

O=C(NNC(=O)c1cccc(O)c1)Nc1ccc([N+](=O)[O-])cc1
cell number change: -41%
AC50 [2]: 25.9 µM [falling, single point]
AC50 [1]: 25.9 µM [falling, partial curve]

CCn1c(C)c(C(C)=O)cc(C#N)c1=O
cell number change: 11.2%
AC50 [2]: 0.00461 µM [rising, full curve, poor fit]

O=[N+]([O-])c1ccc2[nH]nc(-c3ccccc3)c2c1
cell number change: 37.3%
AC50 [2]: 11.6 µM [rising, single point]
AC50 [1]: 0.326 µM [rising, full curve]

Cn1nc(-c2ccccc2)c2nc3ccccc3nc21
cell number change: -15.4%
AC50 [1]: 1.84 µM [rising, partial curve]

C/C(=N\O)c1ccc2[nH]ccc2c1
cell number change: -2.87%

Cc1nn(Cc2ccccc2)c(=O)c2nn(-c3ccc(Cl)cc3)c(C)c12
cell number change: 3.94%
AC50 [2]: 6.51 µM [falling, single point]
AC50 [1]: 6.51 µM [falling, single point]

CSc1nc2ccc(NC(=O)CSc3nnc(N)s3)cc2s1
cell number change: 49.8%
AC50 [2]: 9.2 µM [rising, partial curve]

COc1cc(C(=O)OCC(=O)c2ccc(S(=O)(=O)N3CCCCC3)cc2)cc(OC)c1OC
cell number change: 4.4%

Cc1cccc(CN2CCN(C(=O)CN(C)C(C)C(=O)Nc3ccc(C(N)=O)cc3)CC2)c1 (stereo not drawn)
cell number change: -14.7%
AC50 [2]: 0.058 µM [falling, full curve, poor fit]
AC50 [1]: 0.116 µM [falling, full curve, poor fit]
